Measurements taken from PMC7264342.
No constants are given. Whether binding was seen depends on the method and setting. In cells and extracts the contact can be indirect. Some binding calls cover weakened binding; strength is not graded here.

Amino acid sequences for entries named in this document (tags omitted).
UniProt Q15910: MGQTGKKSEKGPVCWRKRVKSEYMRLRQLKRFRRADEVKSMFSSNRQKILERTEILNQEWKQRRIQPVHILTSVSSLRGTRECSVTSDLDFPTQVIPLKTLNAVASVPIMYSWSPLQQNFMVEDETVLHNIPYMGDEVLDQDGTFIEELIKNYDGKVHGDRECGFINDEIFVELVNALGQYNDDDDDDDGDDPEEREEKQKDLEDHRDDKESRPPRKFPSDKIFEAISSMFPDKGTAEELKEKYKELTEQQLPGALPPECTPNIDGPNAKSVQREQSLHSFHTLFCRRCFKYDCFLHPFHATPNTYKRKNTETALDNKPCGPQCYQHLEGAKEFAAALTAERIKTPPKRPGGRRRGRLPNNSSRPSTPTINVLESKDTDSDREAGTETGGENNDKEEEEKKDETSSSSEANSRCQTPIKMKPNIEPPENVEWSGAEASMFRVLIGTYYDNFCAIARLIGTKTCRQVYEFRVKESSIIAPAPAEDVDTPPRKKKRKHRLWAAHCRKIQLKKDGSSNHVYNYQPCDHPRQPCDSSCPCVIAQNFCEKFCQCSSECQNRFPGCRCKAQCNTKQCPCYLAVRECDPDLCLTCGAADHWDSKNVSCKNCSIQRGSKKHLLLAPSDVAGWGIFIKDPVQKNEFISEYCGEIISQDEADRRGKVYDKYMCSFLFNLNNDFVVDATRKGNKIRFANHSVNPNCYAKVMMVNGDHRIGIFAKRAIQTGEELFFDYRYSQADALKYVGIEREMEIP
UniProt Q9UQM7: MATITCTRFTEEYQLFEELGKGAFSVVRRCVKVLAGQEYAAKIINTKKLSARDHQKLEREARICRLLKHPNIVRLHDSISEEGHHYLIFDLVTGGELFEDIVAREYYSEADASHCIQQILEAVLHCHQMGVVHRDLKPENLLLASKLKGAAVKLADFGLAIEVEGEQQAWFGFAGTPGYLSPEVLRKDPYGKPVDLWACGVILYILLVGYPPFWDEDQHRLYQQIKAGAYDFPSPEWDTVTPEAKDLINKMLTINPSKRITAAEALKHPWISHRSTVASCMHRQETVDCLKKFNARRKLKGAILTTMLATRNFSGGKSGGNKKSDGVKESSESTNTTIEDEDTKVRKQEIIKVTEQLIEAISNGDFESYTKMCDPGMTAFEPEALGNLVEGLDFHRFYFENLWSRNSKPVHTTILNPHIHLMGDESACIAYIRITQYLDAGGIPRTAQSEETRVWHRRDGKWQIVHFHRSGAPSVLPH

Molecular target: EZH2, overexpressed in HEK293T (UniProt Q15910)
Assay: co-IP; HEK293T cells overexpressing CAMK2A and EZH2 (wild type or mutant); 1 mg lysate with 3 µg anti-CAMK2A or anti-EZH2, 4 °C 4 h, protein-G beads overnight, NETN buffer washes; immunoblot; isotype matched control

binding: binds
Substance: Calcium/Calmodulin dependent protein kinase II alpha (CAMK2A), overexpressed in HEK293T (from UniProt Q9UQM7 1-478) (enzyme)
